Experimental data taken from the supplement of paper PMC10849652.
The other results are listed elsewhere or left out.

By UniProt entry, the sequences of proteins in these tests, tags left out. Where a name states a change or a piece, a line headed by the entry shows the natural chain unless it says otherwise.
UniProt Q9BUE0: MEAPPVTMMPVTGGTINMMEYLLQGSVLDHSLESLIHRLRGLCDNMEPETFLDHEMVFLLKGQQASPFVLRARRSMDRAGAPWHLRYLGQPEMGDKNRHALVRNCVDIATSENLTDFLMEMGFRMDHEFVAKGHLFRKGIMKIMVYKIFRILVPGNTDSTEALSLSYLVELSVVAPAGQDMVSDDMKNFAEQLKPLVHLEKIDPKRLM
UniProt Q00266: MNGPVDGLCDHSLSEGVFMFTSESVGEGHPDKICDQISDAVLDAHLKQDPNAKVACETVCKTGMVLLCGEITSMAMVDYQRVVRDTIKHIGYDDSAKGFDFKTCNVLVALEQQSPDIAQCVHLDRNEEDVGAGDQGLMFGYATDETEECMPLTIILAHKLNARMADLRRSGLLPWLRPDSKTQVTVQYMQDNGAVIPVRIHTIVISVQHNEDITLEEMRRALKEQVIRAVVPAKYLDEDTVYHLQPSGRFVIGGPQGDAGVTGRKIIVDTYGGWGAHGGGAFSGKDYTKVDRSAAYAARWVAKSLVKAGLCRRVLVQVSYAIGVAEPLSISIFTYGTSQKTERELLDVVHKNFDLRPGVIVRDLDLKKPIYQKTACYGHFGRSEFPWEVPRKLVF
UniProt Q9H8H3: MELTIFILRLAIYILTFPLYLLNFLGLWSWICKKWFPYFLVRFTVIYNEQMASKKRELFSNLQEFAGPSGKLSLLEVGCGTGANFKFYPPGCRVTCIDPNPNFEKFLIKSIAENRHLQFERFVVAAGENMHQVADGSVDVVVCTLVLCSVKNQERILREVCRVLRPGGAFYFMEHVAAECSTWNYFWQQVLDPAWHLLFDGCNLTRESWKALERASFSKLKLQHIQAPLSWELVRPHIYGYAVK
UniProt Q9ULC4: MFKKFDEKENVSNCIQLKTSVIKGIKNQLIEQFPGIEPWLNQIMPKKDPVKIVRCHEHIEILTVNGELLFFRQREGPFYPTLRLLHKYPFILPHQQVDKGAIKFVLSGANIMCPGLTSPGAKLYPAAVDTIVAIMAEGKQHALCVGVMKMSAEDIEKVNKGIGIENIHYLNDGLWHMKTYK
UniProt Q9Y2X0: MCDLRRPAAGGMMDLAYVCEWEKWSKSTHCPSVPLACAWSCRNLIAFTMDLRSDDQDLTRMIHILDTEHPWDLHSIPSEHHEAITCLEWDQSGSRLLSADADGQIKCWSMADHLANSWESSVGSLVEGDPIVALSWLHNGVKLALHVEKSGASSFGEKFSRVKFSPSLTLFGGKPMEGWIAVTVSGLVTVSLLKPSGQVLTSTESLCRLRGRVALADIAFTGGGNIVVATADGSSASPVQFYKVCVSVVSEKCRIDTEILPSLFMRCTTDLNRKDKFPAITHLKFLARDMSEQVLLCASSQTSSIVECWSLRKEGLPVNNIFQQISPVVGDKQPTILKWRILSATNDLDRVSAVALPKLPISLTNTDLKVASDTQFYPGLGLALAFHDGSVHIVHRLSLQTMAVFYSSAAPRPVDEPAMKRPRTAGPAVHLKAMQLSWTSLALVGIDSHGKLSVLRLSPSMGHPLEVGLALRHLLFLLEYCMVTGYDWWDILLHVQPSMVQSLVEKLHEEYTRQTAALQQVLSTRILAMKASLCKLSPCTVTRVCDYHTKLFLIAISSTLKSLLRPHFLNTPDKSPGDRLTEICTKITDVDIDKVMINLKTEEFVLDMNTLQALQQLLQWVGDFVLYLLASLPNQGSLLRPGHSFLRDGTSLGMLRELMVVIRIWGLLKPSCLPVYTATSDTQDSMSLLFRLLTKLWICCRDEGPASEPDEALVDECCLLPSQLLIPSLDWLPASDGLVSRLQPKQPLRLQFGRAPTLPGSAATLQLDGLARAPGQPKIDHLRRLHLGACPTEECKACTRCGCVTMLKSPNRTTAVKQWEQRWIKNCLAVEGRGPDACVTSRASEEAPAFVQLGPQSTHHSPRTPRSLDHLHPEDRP
UniProt O95140: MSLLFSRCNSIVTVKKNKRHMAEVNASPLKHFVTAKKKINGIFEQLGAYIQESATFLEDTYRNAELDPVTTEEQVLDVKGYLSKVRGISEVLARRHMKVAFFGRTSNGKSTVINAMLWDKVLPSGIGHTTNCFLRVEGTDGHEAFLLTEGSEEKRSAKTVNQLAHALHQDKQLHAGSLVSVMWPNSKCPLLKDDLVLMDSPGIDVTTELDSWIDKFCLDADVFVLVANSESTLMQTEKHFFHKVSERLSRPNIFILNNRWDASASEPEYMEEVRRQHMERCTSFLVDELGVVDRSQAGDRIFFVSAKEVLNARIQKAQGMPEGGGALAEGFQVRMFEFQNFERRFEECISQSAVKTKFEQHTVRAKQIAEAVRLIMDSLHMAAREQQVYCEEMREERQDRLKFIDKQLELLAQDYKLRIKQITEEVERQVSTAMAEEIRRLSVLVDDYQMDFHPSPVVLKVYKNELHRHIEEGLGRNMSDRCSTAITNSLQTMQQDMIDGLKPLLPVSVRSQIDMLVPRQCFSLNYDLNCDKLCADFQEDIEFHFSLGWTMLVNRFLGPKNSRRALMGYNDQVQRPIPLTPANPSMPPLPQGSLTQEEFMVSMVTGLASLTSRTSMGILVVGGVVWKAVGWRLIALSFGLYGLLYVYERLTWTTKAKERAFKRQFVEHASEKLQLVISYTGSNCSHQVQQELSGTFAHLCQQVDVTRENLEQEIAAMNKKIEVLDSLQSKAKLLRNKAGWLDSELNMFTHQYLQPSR
UniProt P33992: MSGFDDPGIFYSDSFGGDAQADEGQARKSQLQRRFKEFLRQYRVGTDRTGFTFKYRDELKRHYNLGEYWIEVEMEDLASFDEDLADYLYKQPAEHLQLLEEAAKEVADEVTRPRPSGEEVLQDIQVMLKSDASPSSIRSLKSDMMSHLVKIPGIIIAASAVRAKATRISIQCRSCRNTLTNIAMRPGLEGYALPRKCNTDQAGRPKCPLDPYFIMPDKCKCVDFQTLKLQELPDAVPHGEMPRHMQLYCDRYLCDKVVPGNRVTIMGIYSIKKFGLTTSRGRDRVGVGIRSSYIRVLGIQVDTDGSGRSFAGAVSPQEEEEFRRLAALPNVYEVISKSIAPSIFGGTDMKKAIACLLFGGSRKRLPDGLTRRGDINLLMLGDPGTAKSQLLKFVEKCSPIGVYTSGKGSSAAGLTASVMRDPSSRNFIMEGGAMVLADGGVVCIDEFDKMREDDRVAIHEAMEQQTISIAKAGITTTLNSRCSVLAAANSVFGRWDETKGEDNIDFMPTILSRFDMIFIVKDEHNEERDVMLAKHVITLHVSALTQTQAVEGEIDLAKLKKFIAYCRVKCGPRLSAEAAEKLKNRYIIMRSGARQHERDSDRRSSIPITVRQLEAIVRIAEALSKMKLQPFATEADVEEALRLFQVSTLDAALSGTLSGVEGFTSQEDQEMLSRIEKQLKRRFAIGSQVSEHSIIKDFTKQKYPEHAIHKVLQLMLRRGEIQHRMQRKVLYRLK
UniProt Q6P1Q9: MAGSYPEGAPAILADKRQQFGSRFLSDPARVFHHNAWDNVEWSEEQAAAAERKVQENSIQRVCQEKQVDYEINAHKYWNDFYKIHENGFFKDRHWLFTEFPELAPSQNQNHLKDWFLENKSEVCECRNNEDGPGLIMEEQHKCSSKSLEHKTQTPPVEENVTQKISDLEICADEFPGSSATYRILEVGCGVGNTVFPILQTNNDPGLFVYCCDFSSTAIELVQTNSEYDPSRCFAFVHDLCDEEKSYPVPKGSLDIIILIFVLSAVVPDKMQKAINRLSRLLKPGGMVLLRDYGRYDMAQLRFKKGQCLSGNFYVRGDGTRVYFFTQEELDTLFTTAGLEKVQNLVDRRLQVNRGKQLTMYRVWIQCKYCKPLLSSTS
UniProt Q86YT6, whole entry, looked up: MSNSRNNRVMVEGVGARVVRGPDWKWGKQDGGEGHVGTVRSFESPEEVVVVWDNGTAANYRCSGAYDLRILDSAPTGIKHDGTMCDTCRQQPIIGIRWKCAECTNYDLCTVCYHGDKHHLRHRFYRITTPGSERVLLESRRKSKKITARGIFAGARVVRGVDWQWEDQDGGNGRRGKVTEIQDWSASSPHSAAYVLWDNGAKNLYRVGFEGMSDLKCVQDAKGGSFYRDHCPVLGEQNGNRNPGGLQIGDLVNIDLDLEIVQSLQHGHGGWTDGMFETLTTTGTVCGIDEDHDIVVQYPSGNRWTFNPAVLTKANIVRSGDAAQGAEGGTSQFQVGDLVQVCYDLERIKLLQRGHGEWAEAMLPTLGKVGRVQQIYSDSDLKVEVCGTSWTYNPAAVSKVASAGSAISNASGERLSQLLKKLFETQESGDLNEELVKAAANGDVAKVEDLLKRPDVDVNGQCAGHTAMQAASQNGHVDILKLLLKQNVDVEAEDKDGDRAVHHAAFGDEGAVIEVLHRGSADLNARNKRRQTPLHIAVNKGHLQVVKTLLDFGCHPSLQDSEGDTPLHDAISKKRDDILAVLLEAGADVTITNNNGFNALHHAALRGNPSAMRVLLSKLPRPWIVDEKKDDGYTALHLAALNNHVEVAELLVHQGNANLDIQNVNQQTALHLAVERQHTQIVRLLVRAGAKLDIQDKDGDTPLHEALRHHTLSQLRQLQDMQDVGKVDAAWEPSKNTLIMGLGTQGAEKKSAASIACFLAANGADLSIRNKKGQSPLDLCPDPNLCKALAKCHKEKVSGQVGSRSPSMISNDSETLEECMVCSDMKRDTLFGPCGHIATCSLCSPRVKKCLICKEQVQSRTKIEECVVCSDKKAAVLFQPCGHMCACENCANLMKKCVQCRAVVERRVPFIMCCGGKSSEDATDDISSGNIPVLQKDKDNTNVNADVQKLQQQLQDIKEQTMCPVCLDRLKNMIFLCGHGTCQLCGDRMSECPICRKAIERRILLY
UniProt Q86V88: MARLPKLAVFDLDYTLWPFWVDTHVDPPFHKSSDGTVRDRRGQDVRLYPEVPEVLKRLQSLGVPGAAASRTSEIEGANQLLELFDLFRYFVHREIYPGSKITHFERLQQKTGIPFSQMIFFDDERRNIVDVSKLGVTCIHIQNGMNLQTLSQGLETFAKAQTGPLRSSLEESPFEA
UniProt Q12866: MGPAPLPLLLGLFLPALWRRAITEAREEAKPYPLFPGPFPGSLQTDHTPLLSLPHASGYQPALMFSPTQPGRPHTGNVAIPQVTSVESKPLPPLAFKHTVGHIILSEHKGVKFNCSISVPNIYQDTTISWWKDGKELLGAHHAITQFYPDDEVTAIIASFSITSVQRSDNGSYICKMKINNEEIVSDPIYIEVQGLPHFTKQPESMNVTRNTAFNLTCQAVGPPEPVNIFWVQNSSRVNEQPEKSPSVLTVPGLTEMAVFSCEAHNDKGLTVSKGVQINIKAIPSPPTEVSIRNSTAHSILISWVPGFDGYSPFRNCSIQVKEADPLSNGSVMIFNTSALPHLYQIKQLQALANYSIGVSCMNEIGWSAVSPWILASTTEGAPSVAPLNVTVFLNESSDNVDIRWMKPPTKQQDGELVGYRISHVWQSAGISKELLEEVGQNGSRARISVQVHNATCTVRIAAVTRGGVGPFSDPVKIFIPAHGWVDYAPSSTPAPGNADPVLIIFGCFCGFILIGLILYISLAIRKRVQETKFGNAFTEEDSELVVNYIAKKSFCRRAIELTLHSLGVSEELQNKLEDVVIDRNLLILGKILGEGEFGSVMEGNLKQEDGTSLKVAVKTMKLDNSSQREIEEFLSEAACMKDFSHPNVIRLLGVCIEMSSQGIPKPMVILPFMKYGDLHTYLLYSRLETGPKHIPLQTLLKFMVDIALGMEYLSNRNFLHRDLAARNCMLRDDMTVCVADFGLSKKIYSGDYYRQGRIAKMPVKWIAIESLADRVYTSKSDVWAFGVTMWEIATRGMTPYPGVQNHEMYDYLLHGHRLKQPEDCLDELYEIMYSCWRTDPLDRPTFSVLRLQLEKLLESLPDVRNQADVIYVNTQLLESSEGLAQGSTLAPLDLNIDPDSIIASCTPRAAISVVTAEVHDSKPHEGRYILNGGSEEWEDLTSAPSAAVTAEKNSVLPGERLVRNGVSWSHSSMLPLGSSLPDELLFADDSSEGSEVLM
UniProt P40925: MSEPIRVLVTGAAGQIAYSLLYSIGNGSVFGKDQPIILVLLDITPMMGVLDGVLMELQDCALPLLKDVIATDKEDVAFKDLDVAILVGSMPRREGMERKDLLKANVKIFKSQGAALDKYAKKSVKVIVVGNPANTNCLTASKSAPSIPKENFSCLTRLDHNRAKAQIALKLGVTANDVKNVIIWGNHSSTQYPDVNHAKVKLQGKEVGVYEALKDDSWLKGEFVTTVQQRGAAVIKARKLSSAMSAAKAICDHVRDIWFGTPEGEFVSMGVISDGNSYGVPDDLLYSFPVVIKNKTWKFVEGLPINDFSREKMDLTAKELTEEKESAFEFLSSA
UniProt Q8TCB7: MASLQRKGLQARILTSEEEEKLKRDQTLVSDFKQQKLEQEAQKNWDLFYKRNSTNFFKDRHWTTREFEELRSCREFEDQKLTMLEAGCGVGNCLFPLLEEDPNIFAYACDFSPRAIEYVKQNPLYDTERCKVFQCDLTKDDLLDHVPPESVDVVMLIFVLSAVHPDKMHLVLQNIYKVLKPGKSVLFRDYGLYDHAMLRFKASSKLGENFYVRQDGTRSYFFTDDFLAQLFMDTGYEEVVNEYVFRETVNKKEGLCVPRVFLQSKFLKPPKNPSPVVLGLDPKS

Assays:
Test in all cases: log2 fold change, soluble protein after heating vs DMSO (PISA); higher = thermal stabilisation; K562 cells, 10 uM, 30 min; active = over 0.2 and 3.5 SD of the protein, either way, in both replicates (recomputed)
[1] = compound: NC(=O)Nc1cc(-c2cccc(F)c2)sc1C(=O)N[C@H]1CCCNC1
Outline: (§1)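 K562 cells at 2×10^6 cells/mL were given 10 μM compound for 30 min. Aliquots then went through 3 min of heating across 48°C-58°C, were pooled, and were extracted in PBS with 0.5% NP-40 at 4°C, and the supernatant after 21,000xg for 90 min was quantified by TMTpro 16plex LC-MS/MS with channel sums equalised. Thermal stability relative to control samples, from duplicates, is given as log2 fold change.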

[2] = compound: NC(=O)c1cnc(N[C@@H]2CCCC[C@@H]2N)nc1Nc1cccc(-n2nccn2)c1
Outline: as §1

[3] = compound: NC1(c2ccc(-c3nc4ccn5c(=O)[nH]nc5c4cc3-c3ccccc3)cc2)CCC1
Outline: as §1

[4] = compound: NCC(=O)Nc1ccc(-n2nc(C(F)(F)F)cc2-c2ccc3c(ccc4ccccc43)c2)cc1
Outline: as §1

entinostat = compound: Nc1ccccc1NC(=O)c1ccc(CNC(=O)OCc2cccnc2)cc1 [entinostat]
Outline: as §1

vorinostat = compound: O=C(CCCCCCC(=O)Nc1ccccc1)NO [vorinostat]
Outline: as §1

citarinostat = compound: O=C(CCCCCCNC(=O)c1cnc(N(c2ccccc2)c2ccccc2Cl)nc1)NO [citarinostat]
Outline: as §1

silmitasertib = compound: O=C(O)c1ccc2c(c1)nc(Nc1cccc(Cl)c1)c1ccncc12 [silmitasertib]
Outline: as §1

[5] = compound: O=C1NC(=O)C(c2cnc3ccccn23)=C1c1cn2c3c(cc(F)cc13)CN(C(=O)N1CCCCC1)CC2
Outline: as §1

[6] = compound: c1cc(OCCN2CCCCC2)cc(-c2n[nH]c3ccc(-c4nnc[nH]4)cc23)c1
Outline: as §1

Measured: log2 fold change

MBOAT2 (UniProt Q6ZWT7)
inactive: [1] 0.059 | [2] -0.076 | [3] -0.005 | [4] 0.02 | entinostat -0.007 | vorinostat 0.038 | citarinostat 0.079 | silmitasertib 0.064 | [5] 0.097 | [6] -0.04

MECP2 isoform 2 (UniProt P51608)
inactive: [1] 0.046 | [2] 0.074 | [3] 0.151 | [4] 0.117 | entinostat -0.069 | vorinostat -0.059 | citarinostat -0.103 | silmitasertib 0.236 | [5] 0.188 | [6] -0.153

MAST4 (UniProt O15021)
inactive: [1] -0.217 | [2] -0.038 | [3] -0.298 | [4] -0.115 | entinostat 0.085 | vorinostat 0.045 | citarinostat 0.135 | silmitasertib -0.053 | [5] 0.051 | [6] -0.151

MED18 (UniProt Q9BUE0)
inactive: [1] -0.08 | [2] -0.137 | [3] -0.079 | [4] -0.084 | entinostat -0.015 | vorinostat -0.016 | citarinostat 0.03 | silmitasertib 0.059 | [5] -0.129 | [6] -0.05

MAT1A (UniProt Q00266)
inactive: [1] 0.012 | [2] 0.044 | [3] 0.023 | [4] 0.035 | entinostat -0.021 | vorinostat -0.024 | citarinostat -0.058 | silmitasertib 0.02 | [5] -0.002 | [6] -0.009

METTL7A (UniProt Q9H8H3)
inactive: [1] -0.091 | [2] 0.014 | [3] 0.018 | [4] -0.019 | entinostat 0 | vorinostat -0.002 | citarinostat 0.027 | silmitasertib -0.028 | [5] 0.01 | [6] 0.02

MCTS1 isoform 3 (UniProt Q9ULC4)
inactive: [1] 0.006 | [2] 0.03 | [3] 0.049 | [4] 0.02 | entinostat -0.007 | vorinostat 0.011 | citarinostat 0.034 | silmitasertib 0.003 | [5] -0.022 | [6] -0.017

MED16 (UniProt Q9Y2X0)
inactive: [1] 0.108 | [2] 0.021 | [3] -0.005 | [4] -0.044 | entinostat -0.047 | vorinostat 0.107 | citarinostat -0.094 | silmitasertib 0.026 | [5] 0.06 | [6] -0.117

2 records picked at random from the list so far, as already listed:
MCTS1 isoform 3 (UniProt Q9ULC4)
inactive: [1] 0.006 | [2] 0.03 | [3] 0.049 | [4] 0.02 | entinostat -0.007 | vorinostat 0.011 | citarinostat 0.034 | silmitasertib 0.003 | [5] -0.022 | [6] -0.017

METTL7A (UniProt Q9H8H3)
inactive: [1] -0.091 | [2] 0.014 | [3] 0.018 | [4] -0.019 | entinostat 0 | vorinostat -0.002 | citarinostat 0.027 | silmitasertib -0.028 | [5] 0.01 | [6] 0.02

Following part.

MFN2 (UniProt O95140)
inactive: [1] -0.081 | [2] -0.088 | [3] -0.104 | [4] -0.168 | entinostat 0.014 | vorinostat -0.019 | citarinostat -0.021 | silmitasertib -0.024 | [5] -0.019 | [6] -0.008

MEF2C isoform 5 (UniProt Q06413)
inactive: [1] -0.03 | [2] 0 | [3] 0.013 | [4] -0.005 | entinostat -0.042 | vorinostat -0.009 | citarinostat 0.033 | silmitasertib 0.009 | [5] -0.108 | [6] -0.019

MFSD11 (UniProt O43934)
inactive: [1] 0.035 | [2] 0.038 | [3] -0.202 | [4] 0.002 | entinostat -0.112 | vorinostat -0.028 | citarinostat -0.096 | silmitasertib 0.044 | [5] -0.04 | [6] 0.063

MED13 (UniProt Q9UHV7)
inactive: [1] 0.06 | [2] 0.03 | [3] -0.108 | [4] 0.155 | entinostat 0.241 | vorinostat -0.173 | citarinostat 0.231 | silmitasertib 0.041 | [5] 0.139 | [6] -0.135

MCM5 (UniProt P33992)
inactive: [1] 0 | [2] -0.021 | [3] -0.05 | [4] 0.054 | entinostat 0.021 | vorinostat 0.027 | citarinostat 0.055 | silmitasertib -0.018 | [5] 0.02 | [6] 0

MIA2 (UniProt Q96PC5)
inactive: [1] 0.03 | [2] -0.03 | [3] 0.06 | [4] -0.032 | entinostat -0.009 | vorinostat 0.009 | citarinostat 0.059 | silmitasertib 0.083 | [5] -0.045 | [6] -0.058

MFF (UniProt Q9GZY8)
active: [2] -0.224
inactive: [1] -0.098 | [3] -0.125 | [4] -0.102 | entinostat -0.015 | vorinostat 0.006 | citarinostat -0.007 | silmitasertib 0.04 | [5] -0.06 | [6] -0.135

MFSD5 isoform 2 (UniProt Q6N075)
inactive: [1] -0.037 | [2] 0.035 | [3] -0.137 | [4] -0.089 | entinostat -0.099 | vorinostat -0.093 | citarinostat -0.009 | silmitasertib -0.033 | [5] -0.193 | [6] -0.049

MCUR1 (UniProt Q96AQ8)
inactive: [1] -0.043 | [2] -0.048 | [3] 0.011 | [4] 0.01 | entinostat -0.028 | vorinostat -0.026 | citarinostat -0.001 | silmitasertib -0.023 | [5] -0.036 | [6] -0.018

METTL2B (UniProt Q6P1Q9)
inactive: [1] 0.065 | [2] 0.094 | [3] -0.202 | [4] -0.04 | entinostat 0.093 | vorinostat 0.056 | silmitasertib 0.201 | [5] 0.096

MED22 (UniProt Q15528)
inactive: [1] 0.042 | [2] 0.029 | [3] 0.064 | [4] 0.023 | entinostat 0.049 | citarinostat -0.243 | silmitasertib -0.01 | [5] -0.074
active: [6] 0.322

MIB1 (UniProt Q86YT6)
inactive: [1] -0.003 | [2] -0.019 | [3] 0.005 | [4] 0.005 | entinostat -0.046 | vorinostat 0.221 | citarinostat 0.006 | silmitasertib 0.06 | [5] -0.006 | [6] -0.037

MFSD6 (UniProt Q6ZSS7)
inactive: [1] -0.021 | [2] 0.023 | [3] 0.103 | [4] 0.069 | entinostat 0.143 | vorinostat 0.06 | silmitasertib 0.08 | [5] 0.022

MDP1 (UniProt Q86V88)
inactive: [1] -0.035 | [2] -0.024 | [3] -0.032 | [4] 0.021 | entinostat 0.019 | vorinostat -0.117 | citarinostat 0.025 | silmitasertib 0.01 | [5] -0.073 | [6] -0.014

MERTK (UniProt Q12866)
inactive: [1] -0.123 | [2] 0.012 | [3] -0.167 | [4] -0.011 | entinostat 0.039 | citarinostat 0.067 | silmitasertib 0.037 | [5] -0.204 | [6] 0.018

MBD2 (UniProt Q9UBB5)
inactive: [1] -0.048 | [2] 0.058 | [3] -0.117 | [4] 0.062 | entinostat -0.055 | vorinostat -0.068 | silmitasertib 0.081 | [5] 0.058

MDH1 isoform 3 (UniProt P40925)
inactive: [1] 0.038 | [2] 0.011 | [3] -0.004 | [4] 0.015 | entinostat 0.003 | vorinostat 0.009 | citarinostat 0.008 | silmitasertib -0.055 | [5] -0.004 | [6] 0.032

METTL6 (UniProt Q8TCB7)
inactive: [1] -0.249 | [2] 0.039 | [3] -0.337 | entinostat -0.047 | vorinostat -0.029 | silmitasertib 0.099 | [5] 0.144

ME1 (UniProt P48163)
inactive: [1] 0.008 | [2] 0.009 | [3] -0.024 | [4] 0.025 | entinostat 0.02 | vorinostat -0.021 | citarinostat 0 | silmitasertib -0.009 | [5] -0.039 | [6] -0.005
